According to publication PMC11381323:
These are yes or no findings as the source states them, for the method shown. In cells and extracts the contact can be indirect. Some entries that bind do so weakly or less than the wild type.

Amino acid sequences for entries named in this document (tags omitted).
UniProt Q9UKV8: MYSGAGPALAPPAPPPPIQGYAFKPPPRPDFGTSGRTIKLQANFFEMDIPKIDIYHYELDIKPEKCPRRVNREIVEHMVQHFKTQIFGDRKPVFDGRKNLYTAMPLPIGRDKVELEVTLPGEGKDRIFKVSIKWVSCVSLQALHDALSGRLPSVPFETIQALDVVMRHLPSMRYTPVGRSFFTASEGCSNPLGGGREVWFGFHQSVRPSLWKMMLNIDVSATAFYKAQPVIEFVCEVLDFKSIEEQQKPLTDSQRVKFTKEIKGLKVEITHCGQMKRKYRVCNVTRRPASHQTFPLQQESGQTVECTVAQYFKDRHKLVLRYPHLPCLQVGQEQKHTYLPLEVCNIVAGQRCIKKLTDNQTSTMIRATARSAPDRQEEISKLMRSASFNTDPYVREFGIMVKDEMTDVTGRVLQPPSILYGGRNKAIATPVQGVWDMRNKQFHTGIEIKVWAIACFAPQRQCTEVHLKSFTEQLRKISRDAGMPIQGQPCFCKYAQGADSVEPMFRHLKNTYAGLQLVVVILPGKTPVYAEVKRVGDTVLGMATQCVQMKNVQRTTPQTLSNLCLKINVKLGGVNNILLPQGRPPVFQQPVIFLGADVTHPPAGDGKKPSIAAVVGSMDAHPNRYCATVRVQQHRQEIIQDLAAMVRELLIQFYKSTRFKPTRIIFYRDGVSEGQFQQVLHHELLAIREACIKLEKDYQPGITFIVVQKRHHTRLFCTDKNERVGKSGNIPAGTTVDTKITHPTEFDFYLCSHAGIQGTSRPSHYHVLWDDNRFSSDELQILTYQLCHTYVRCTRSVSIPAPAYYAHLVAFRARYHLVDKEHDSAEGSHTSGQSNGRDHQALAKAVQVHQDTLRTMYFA

Tests used:
[1] = biological target: Argonaute 2 (AGO2) (human (endogenous in A375, SHSY5Y and HeLa)) (UniProt Q9UKV8); assay: co-IP; co-immunoprecipitation of endogenous AGO2 and FAM120A, immunoblots; A375 and SHSY5Y Lamin A KO cells (Figure 5E, F)
[2] = biological target: Argonaute 2 (AGO2) (human (endogenous in A375, SHSY5Y and HeLa)) (UniProt Q9UKV8); assay: condition: only in WT cells (Lamin A not knocked out); co-IP; co-immunoprecipitation of endogenous AGO2 and FAM120A, immunoblots; A375 and SHSY5Y WT cells (Figure 5E, F)
[3] = biological target: Argonaute 2 (AGO2) (human (endogenous in A375, SHSY5Y and HeLa)) (UniProt Q9UKV8); assay: co-IP; AGO1-4 immunoprecipitation with Flag-tagged T6B peptide from cytoplasmic and nuclear lysates of A375 and SHSY5Y Lamin A KO cells; immunoblots of AGO2 and FAM120A (Figure 5K, L)

B1: Constitutive coactivator of PPAR-gamma-like protein 1, FAM120A (protein, UniProt Q9NZB2 1-1118)
chain: MGVQGFQDYIEKHCPSAVVPVELQKLARGSLVGGGRQRPPQTPLRLLVDADNCLHRLYGGFYTDWVSGGQWNHMLGYLAALAKACFGGNIELFVFFNGALEKARLHEWVKRQGNERQTAQQIVSHVQNKGTPPPKVWFLPPVCMAHCIRLALIRFHVKVAQSIEDHHQEVIGFCRENGFHGLVAYDSDYALCNIPYYFSAHALKLSRNGKSLTTSQYLMHEVAKQLDLNPNRFPIFAALLGNHILPDEDLASFHWSLLGPEHPLASLKVRAHQLVLPPCDVVIKAVADYVRNIQDTSDLDAIAKDVFQHSQSRTDDKVIRFKRAIGYYSATSKPMSFHPPHYLAARPGPFGMPGMVPPHVPPQMLNIPQTSLQAKPVAPQVPSPGGAPGQGPYPYSLSEPAPLTLDTSGKNLTEQNSYSNIPHEGKHTPLYERSSPINPAQSGSPNHVDSAYFPGSSTSSSSDNDEGSGGATNHISGNKIGWEKTGSHSEPQARGDPGDQTKAEGSSTASSGSQLAEGKGSQMGTVQPIPCLLSMPTRNHMDITTPPLPPVAPEVLRVAEHRHKKGLMYPYIFHVLTKGEIKIAVSIEDEANKDLPPAALLYRPVRQYVYGVLFSLAESRKKTERLAFRKNRLPPEFSPVIIKEWAAYKGKSPQTPELVEALAFREWTCPNLKRLWLGKAVEDKNRRMRAFLACMRSDTPAMLNPANVPTHLMVLCCVLRYMVQWPGARILRRQELDAFLAQALSPKLYEPDQLQELKIENLDPRGIQLSALFMSGVDMALFANDACGQPIPWEHCCPWMYFDGKLFQSKLLKASREKTPLIDLCDGQADQAAKVEKMRQSVLEGLSFSRQSHTLPFPPPPALPFYPASAYPRHFGPVPPSQGRGRGFAGVCGFGGPYGETVATGPYRAFRVAAASGHCGAFSGSDSSRTSKSQGGVQPIPSQGGKLEIAGTVVGHWAGSRRGRGGRGPFPLQVVSVGGPARGRPRGVISTPVIRTFGRGGRYYGRGYKNQAAIQGRPPYAASAEEVAKELKSKSGESKSSAMSSDGSLAENGVMAEEKPAPQMNGSTGDARAPSHSESALNNDSKTCNTNPHLNALSTDSACRREAALEAAVLNKEE
With B1 the binding [1] was “binds”, the binding [2] was “no binding” and the binding [3] was “binds”.
